Data published in paper PMC4172982.
These are yes or no findings as the source states them, for the method shown.

The chains behind the UniProt entries cited, without tags or fusion partners.
UniProt P02687: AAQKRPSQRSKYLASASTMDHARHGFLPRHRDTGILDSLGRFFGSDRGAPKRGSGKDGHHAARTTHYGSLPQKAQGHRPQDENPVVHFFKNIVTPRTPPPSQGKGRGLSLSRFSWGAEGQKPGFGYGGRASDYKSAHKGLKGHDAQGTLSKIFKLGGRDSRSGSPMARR
UniProt P16402: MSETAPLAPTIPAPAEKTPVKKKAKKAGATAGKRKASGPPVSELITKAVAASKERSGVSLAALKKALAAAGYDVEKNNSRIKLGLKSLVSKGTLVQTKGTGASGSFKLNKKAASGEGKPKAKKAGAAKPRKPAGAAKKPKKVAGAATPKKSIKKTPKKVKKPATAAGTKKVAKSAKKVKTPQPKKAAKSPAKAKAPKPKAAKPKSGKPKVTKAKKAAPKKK

Biological target: Myelin basic protein (MBP) from bovine brain (bovine) (UniProt P02687)
Experiment: SPR; Biacore T200; MBP immobilised on a CM4 chip (~1,500 RU, amine coupling); analytes injected at 5.0 μM, 25 μL/min, 200 s; HBS-EP+, 25°C; both purified

“Histone H1.3 human, recombinant (from UniProt P16402 1-221)” was tested, and the binding was “no binding (tested: 5.0 μM)”.
